According to the supplement of paper PMC10849652:
The list shows a part of the results.

Chains of the proteins cited; added tags and fusions are not shown. Lines headed by an entry give the natural chain unless they say otherwise; changes in a name come on top.
UniProt Q96FJ2, whole entry, looked up: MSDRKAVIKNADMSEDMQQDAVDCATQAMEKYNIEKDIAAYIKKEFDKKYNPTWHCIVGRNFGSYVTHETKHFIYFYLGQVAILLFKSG
UniProt P60981: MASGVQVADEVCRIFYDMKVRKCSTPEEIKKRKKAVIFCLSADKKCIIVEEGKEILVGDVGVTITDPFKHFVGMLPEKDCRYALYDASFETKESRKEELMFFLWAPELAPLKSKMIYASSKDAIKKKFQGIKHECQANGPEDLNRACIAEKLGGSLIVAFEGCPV
UniProt Q9H3H5: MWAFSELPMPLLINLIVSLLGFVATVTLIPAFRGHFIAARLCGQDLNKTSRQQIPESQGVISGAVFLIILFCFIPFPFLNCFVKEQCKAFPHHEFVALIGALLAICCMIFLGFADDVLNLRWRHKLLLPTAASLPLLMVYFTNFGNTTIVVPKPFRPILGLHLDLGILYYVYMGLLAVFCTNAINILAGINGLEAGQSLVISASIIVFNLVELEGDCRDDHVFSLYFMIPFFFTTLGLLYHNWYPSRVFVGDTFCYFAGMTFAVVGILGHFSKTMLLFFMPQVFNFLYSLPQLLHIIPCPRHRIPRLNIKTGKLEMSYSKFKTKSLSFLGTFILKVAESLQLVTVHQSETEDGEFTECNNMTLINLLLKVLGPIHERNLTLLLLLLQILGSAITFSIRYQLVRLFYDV
UniProt Q14126: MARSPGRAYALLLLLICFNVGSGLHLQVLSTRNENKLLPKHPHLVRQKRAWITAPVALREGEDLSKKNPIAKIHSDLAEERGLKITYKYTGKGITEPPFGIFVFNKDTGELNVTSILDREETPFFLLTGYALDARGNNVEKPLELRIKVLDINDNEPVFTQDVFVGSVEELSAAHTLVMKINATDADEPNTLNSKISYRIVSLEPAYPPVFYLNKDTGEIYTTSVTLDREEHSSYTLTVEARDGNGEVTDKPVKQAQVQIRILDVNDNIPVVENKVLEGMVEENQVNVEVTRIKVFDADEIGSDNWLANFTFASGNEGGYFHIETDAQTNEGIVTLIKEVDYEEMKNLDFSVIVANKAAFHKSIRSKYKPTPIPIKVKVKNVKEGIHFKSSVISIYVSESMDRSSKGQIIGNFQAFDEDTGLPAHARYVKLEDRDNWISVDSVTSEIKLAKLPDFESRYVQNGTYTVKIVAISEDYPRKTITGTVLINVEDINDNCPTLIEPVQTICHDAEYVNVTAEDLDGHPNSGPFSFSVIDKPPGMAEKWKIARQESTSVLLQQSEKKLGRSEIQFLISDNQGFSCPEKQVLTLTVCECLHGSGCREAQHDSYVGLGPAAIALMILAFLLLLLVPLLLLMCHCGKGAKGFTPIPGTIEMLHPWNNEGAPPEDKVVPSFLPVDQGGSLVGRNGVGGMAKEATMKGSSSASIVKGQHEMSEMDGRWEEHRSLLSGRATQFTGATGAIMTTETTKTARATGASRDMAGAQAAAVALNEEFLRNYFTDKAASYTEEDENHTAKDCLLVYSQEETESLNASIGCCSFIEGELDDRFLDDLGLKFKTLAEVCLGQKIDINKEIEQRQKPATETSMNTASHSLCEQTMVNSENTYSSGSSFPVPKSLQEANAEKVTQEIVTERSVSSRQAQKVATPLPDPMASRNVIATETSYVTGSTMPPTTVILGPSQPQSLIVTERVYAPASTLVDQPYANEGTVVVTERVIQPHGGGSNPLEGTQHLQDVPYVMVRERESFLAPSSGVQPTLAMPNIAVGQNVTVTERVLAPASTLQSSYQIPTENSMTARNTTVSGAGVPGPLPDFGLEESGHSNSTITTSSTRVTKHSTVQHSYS
UniProt Q8TEA8: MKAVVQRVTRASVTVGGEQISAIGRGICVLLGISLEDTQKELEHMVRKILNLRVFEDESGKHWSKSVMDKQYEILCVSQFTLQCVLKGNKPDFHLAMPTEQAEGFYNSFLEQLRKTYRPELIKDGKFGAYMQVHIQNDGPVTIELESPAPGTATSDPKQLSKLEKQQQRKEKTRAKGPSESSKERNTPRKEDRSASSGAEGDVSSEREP
UniProt Q01658: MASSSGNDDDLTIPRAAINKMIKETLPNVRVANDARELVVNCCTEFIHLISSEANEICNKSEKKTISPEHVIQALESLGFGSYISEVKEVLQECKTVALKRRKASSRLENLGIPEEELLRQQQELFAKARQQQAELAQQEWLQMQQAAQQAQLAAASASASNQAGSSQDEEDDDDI
UniProt P63167, whole entry, looked up: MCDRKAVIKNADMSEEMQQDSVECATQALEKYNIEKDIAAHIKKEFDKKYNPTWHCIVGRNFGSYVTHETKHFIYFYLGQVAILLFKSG
UniProt Q8WXX5: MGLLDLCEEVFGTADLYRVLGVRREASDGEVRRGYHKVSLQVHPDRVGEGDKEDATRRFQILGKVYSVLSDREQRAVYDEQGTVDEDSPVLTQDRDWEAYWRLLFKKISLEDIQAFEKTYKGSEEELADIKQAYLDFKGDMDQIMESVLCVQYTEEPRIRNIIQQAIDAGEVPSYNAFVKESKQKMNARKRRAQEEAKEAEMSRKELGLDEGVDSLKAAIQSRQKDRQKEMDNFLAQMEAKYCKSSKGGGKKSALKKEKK
UniProt Q8IXB1: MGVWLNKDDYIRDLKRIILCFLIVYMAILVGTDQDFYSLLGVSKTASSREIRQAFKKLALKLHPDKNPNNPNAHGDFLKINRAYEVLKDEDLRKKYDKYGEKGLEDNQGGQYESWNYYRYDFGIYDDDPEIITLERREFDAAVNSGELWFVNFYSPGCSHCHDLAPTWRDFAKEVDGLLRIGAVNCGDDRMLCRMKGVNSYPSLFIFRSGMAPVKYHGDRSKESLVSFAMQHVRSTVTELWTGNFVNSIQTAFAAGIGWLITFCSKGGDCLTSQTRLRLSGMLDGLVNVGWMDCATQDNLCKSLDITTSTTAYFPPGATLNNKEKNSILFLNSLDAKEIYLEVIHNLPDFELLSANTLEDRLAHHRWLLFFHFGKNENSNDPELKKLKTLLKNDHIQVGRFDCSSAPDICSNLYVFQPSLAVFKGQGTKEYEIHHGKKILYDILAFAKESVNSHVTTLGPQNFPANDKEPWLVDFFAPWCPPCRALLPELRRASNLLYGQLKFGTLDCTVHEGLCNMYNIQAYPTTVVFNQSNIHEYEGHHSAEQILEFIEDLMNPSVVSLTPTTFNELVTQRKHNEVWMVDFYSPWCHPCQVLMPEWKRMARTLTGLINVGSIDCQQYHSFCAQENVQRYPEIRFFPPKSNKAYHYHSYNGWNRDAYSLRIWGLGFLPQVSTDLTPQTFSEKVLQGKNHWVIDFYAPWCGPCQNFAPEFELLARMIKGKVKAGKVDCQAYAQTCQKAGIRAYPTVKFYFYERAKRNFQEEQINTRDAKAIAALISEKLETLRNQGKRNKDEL
UniProt Q9BQ95: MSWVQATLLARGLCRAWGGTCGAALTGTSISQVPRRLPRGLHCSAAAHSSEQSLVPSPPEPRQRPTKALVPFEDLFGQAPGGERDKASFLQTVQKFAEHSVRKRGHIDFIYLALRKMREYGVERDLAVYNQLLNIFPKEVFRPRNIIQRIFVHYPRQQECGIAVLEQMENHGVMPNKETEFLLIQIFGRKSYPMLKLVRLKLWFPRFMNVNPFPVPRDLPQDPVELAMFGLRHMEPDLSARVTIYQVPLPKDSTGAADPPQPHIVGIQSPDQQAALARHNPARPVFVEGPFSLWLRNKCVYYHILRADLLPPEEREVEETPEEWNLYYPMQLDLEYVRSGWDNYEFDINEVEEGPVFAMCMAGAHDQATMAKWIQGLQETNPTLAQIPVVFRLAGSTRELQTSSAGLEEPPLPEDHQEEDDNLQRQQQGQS
UniProt O75190: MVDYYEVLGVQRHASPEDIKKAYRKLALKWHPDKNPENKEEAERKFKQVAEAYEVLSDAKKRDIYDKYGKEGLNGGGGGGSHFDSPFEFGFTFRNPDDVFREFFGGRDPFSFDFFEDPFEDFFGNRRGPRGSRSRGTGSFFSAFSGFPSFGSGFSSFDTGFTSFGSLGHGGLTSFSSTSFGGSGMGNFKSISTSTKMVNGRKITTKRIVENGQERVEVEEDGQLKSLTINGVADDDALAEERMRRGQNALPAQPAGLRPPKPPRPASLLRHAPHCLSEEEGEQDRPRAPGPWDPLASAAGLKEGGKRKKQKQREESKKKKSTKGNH
UniProt Q96EY1: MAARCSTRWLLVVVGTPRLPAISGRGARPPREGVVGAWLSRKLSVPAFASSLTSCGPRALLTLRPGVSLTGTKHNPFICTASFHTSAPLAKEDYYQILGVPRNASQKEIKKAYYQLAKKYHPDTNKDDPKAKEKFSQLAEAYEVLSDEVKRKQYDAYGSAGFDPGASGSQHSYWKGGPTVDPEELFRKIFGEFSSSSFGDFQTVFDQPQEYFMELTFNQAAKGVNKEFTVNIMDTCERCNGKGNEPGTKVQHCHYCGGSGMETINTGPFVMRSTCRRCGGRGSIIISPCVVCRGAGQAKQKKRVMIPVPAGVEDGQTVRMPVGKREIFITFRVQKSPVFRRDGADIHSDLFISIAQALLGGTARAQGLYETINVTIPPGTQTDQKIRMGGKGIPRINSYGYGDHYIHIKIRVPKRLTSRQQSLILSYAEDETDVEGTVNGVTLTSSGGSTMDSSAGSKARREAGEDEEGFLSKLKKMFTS
UniProt Q5F1R6: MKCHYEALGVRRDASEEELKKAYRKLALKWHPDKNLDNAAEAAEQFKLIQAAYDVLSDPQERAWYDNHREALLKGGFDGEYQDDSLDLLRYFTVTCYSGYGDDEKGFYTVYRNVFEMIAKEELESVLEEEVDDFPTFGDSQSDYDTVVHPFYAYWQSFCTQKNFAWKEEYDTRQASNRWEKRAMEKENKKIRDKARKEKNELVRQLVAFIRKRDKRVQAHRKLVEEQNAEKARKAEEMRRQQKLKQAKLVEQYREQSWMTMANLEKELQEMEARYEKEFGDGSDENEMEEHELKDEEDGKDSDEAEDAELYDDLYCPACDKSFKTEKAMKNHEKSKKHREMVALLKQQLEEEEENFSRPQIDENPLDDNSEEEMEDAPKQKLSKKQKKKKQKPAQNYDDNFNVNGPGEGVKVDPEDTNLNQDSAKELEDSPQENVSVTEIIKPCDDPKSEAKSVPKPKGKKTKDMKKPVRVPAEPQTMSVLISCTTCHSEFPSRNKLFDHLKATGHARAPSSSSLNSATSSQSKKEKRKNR
UniProt Q6ZPD9: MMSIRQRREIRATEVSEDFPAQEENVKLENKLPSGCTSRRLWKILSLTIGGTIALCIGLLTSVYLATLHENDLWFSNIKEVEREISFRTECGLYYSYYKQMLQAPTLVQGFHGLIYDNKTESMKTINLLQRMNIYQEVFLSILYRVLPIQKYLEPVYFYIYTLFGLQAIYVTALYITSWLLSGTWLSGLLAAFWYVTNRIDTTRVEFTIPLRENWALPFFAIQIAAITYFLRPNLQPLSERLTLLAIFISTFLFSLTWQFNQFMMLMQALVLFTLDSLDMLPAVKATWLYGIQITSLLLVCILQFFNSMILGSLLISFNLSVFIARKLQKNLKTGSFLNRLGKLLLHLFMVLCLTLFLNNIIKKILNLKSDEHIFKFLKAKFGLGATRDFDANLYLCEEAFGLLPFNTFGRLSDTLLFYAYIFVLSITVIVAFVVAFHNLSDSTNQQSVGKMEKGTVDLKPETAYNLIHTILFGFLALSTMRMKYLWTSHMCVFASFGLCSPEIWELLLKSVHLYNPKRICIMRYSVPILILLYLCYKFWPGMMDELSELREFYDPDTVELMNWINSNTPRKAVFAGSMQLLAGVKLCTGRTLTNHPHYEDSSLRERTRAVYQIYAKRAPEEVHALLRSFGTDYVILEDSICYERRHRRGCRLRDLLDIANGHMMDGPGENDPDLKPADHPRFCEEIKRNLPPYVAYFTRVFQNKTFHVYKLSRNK
UniProt Q92785, whole entry, looked up: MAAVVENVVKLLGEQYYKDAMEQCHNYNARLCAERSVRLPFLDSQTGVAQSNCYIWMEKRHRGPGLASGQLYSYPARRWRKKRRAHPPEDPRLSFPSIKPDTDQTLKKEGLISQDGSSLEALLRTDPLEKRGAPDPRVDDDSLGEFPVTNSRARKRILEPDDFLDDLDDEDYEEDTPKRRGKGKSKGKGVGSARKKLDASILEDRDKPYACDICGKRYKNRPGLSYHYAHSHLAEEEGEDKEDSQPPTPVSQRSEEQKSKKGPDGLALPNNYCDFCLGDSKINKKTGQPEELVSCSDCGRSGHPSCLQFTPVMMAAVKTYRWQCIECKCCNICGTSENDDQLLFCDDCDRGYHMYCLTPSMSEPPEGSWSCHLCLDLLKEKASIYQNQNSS
UniProt O95620: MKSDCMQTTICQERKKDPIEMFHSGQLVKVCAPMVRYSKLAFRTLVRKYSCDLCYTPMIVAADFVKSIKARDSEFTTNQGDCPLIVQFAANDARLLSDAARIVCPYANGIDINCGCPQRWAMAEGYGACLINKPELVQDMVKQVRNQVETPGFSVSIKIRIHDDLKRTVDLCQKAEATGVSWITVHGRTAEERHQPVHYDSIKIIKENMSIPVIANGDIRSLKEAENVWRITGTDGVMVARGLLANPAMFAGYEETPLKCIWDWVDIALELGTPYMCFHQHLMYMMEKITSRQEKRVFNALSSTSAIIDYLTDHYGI

Assays:
Experiment in all cases: log2 fold change, soluble protein after heating vs DMSO (PISA); higher = thermal stabilisation; K562 cells, 10 uM, 30 min; active = over 0.2 and 3.5 SD of the protein, either way, in both replicates (recomputed)
[1] = compound: CC[C@@H]1C(=O)N(C)c2cnc(Nc3ccc(C(=O)NC4CCN(C)CC4)cc3OC)nc2N1C1CCCC1
Summary of the method: (§1)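 K562 cells at 2×10^6 cells/mL were treated for 30 min with 10 μM compound, and aliquots were heated for 3 min over 48°C-58°C before pooling. Extraction used PBS with 0.5% NP-40 at 4°C, and soluble protein was the supernatant after 21,000xg for 90 min, measured by TMTpro 16plex LC-MS/MS with channel sums equalised. Thermal stability values, relative to control samples and from duplicates, are log2 fold changes.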

[2] = compound: CC[C@@H]1C(=O)N(C)c2cnc(Nc3ccc(C(=O)N[C@H]4CC[C@H](N5CCN(CC6CC6)CC5)CC4)cc3OC)nc2N1C(C)C [volasertib]
Summary of the method: as §1

[3] = compound: CC[C@H](C)N1C=C(C2=C(C=C(C=C21)C3=CN=C(C=C3)N4CCNCC4)C(=O)NCC5=C(C=C(NC5=O)C)C)C
Summary of the method: as §1

[4] = compound: CC[C@H](C)[C@@H](C(=O)N[C@@H]([C@@H](C)O)C(=O)N[C@@H](CC(C)C)C(=O)[C@]1(CO1)C)NC(=O)[C@H]([C@@H](C)CC)N(C)C(=O)C [epoxomicin]
Summary of the method: as §1

[5] = compound: CCn1c(C(=O)N(C2CC2)C2CC2)cc2c3c(ncn3C)c(Nc3cc(C)n(C)n3)nc21
Summary of the method: as §1

[6] = compound: CCn1cc(-c2ccnc3[nH]c(-c4cccc(CN(C)C)c4)cc23)c(-c2ccc(NC(=O)N(C)C)cc2)n1
Summary of the method: as §1

[7] = compound: CN(C)CC(=O)Nc1ccc2[nH]c(=O)c3ccccc3c2c1
Summary of the method: as §1

[8] = compound: CN(CCOC1=CC=C(C=C1)C[C@H]2C(=O)NC(=O)S2)C3=CC=CC=N3 (racemic) [rosiglitazone]
Summary of the method: as §1

[9] = compound: CN1C2=C(C3=C1C(=O)N(N=C3)CC4=CC(=CC=C4)N)SC(=C2)S(=O)C
Summary of the method: as §1

[10] = compound: CN1CCC(CNc2ccc3ncc(-c4cccc(OC(F)(F)F)c4)n3n2)CC1
Summary of the method: as §1

Measured: log2 fold change

DYNLL2 (UniProt Q96FJ2)
inactive: [1] -0.035 | [2] -0.048 | [3] 0.017 | [4] 0.009 | [5] 0.041 | [6] -0.019 | [7] 0.015 | [8] -0.051 | [9] -0.087 | [10] -0.062

DSTN (UniProt P60981)
inactive: [1] -0.008 | [2] 0.025 | [3] 0.053 | [4] 0.005 | [5] 0 | [6] -0.056 | [7] -0.016 | [8] 0.009 | [9] -0.057 | [10] -0.026

DPAGT1 (UniProt Q9H3H5)
inactive: [1] -0.047 | [2] -0.016 | [3] -0.027 | [4] 0.116 | [5] 0.062 | [6] -0.031 | [7] 0.138 | [8] 0.032 | [9] -0.156 | [10] -0.153

DOCK9 isoform 4 (UniProt Q9BZ29)
inactive: [1] -0.039 | [2] -0.063 | [3] 0.027 | [4] 0.045 | [5] 0.004 | [6] -0.12 | [7] -0.006 | [8] 0.121 | [9] 0.145 | [10] -0.07

DPM1 (UniProt O60762)
inactive: [1] -0.007 | [2] 0.068 | [3] -0.012 | [4] 0 | [5] 0.013 | [6] -0.003 | [7] -0.002 | [8] 0.021 | [9] -0.07 | [10] -0.032

DSG2 (UniProt Q14126)
inactive: [1] 0.003 | [2] -0.028 | [3] 0.003 | [4] 0.022 | [5] 0.032 | [6] -0.045 | [7] -0.008 | [8] 0.014 | [9] -0.039 | [10] 0.018

DNPEP (UniProt Q9ULA0)
inactive: [1] 0.019 | [2] 0.059 | [3] -0.004 | [4] 0.027 | [5] 0.012 | [6] -0.021 | [7] -0.003 | [8] -0.004 | [9] -0.058 | [10] 0.017

DYNC1H1 (UniProt Q14204)
inactive: [1] 0.011 | [2] -0.009 | [3] 0.045 | [4] 0.014 | [5] 0.008 | [6] -0.042 | [7] 0.011 | [8] 0.036 | [9] -0.022 | [10] -0.022

DTD1 (UniProt Q8TEA8)
inactive: [1] 0.034 | [2] 0.024 | [3] -0.018 | [4] 0.003 | [5] 0.006 | [6] 0.023 | [7] -0.011 | [8] -0.014 | [9] 0.033 | [10] 0.215

DR1 (UniProt Q01658)
inactive: [1] 0.017 | [2] -0.023 | [3] -0.02 | [4] 0.004 | [5] 0.043 | [6] -0.001 | [7] 0.006 | [8] 0.061 | [9] 0.003 | [10] -0.036

DYNLL1 (UniProt P63167)
inactive: [1] -0.014 | [2] -0.032 | [3] 0.087 | [4] -0.009 | [5] 0.003 | [6] -0.106 | [7] -0.044 | [8] -0.031 | [9] 0.029 | [10] 0.04

DNAJC9 (UniProt Q8WXX5)
inactive: [1] -0.069 | [2] -0.17 | [3] 0.055 | [4] 0.035 | [5] -0.005 | [6] 0.043 | [7] 0.01 | [8] 0.013 | [9] -0.053 | [10] -0.065

DNAJC10 (UniProt Q8IXB1)
inactive: [1] 0.056 | [2] 0.004 | [3] 0.035 | [4] -0.036 | [5] 0.006 | [6] 0.062 | [7] -0.024 | [8] -0.084 | [9] 0.056 | [10] 0.122

DSC2 (UniProt Q02487)
inactive: [1] -0.083 | [2] -0.077 | [3] 0.149 | [4] -0.063 | [5] -0.129 | [6] -0.421 | [7] 0.075 | [8] 0.038 | [9] 0.194 | [10] -0.162

DNAJB4 (UniProt Q9UDY4)
inactive: [1] 0.041 | [2] -0.232 | [3] 0.07 | [4] -0.006 | [5] 0.002 | [6] 0.033 | [7] 0.017 | [8] 0.03 | [9] -0.049 | [10] -0.057

DUT (UniProt P33316)
inactive: [1] 0.019 | [2] 0.073 | [3] -0.006 | [4] 0.045 | [5] -0.016 | [6] -0.015 | [7] 0.01 | [8] 0.017 | [9] -0.048 | [10] -0.056

ECSIT (UniProt Q9BQ95)
inactive: [1] 0.003 | [2] 0.042 | [3] 0.008 | [4] 0.001 | [5] -0.028 | [6] 0.076 | [7] -0.017 | [8] -0.008 | [9] 0.084 | [10] -0.004

2 consecutive entries already listed, for reference:
DNAJC10 (UniProt Q8IXB1)
inactive: [1] 0.056 | [2] 0.004 | [3] 0.035 | [4] -0.036 | [5] 0.006 | [6] 0.062 | [7] -0.024 | [8] -0.084 | [9] 0.056 | [10] 0.122

DSC2 (UniProt Q02487)
inactive: [1] -0.083 | [2] -0.077 | [3] 0.149 | [4] -0.063 | [5] -0.129 | [6] -0.421 | [7] 0.075 | [8] 0.038 | [9] 0.194 | [10] -0.162

Later entries:

DNAJC2 (UniProt Q99543)
inactive: [1] 0.036 | [2] -0.25 | [3] 0.138 | [4] 0.022 | [5] -0.118 | [6] 0.014 | [7] 0.067 | [8] 0.114 | [9] 0.119 | [10] -0.125

DPP7 (UniProt Q9UHL4)
inactive: [1] -0.037 | [2] -0.019 | [3] -0.004 | [4] -0.043 | [5] -0.017 | [6] 0.009 | [7] -0.01 | [8] 0.009 | [9] -0.006 | [10] -0.139

EDARADD (UniProt Q8WWZ3)
inactive: [1] -0.012 | [2] 0.103 | [3] -0.032 | [4] 0.006 | [5] -0.083 | [6] 0.002 | [7] -0.043 | [8] 0.098 | [9] -0.051 | [10] -0.017

DNAJB6 (UniProt O75190)
inactive: [1] 0.054 | [2] -0.054 | [3] 0.023 | [4] -0.014 | [5] -0.01 | [6] -0.011 | [7] -0.006 | [8] -0.014 | [9] 0.004 | [10] -0.042

DUSP12 (UniProt Q9UNI6)
inactive: [1] -0.065 | [2] -0.162 | [3] 0.007 | [4] 0.019 | [5] 0 | [6] -0.07 | [7] -0.009 | [8] 0.024 | [9] -0.059 | [10] -0.106

DNAJA3 (UniProt Q96EY1)
inactive: [1] 0.046 | [2] -0.101 | [3] 0.122 | [4] -0.037 | [5] -0.036 | [6] -0.019 | [7] -0.071 | [8] 0.058 | [9] -0.022 | [10] 0.016

EBP (UniProt Q15125)
inactive: [1] 0.104 | [2] -0.038 | [3] -0.065 | [4] -0.016 | [5] -0.053 | [6] 0.019 | [7] 0.17 | [8] 0.064 | [9] 0.09 | [10] 0.119

DNAJC21 isoform 3 (UniProt Q5F1R6)
inactive: [1] 0.085 | [2] -0.127 | [3] 0.051 | [4] -0.077 | [5] -0.029 | [6] -0.012 | [7] -0.035 | [8] 0.067 | [9] 0.044 | [10] 0.028

DTL (UniProt Q9NZJ0)
inactive: [1] -0.096 | [2] -0.033 | [3] 0.049 | [4] -0.024 | [5] 0.026 | [6] -0.029 | [7] 0.038 | [8] -0.012 | [9] -0.105 | [10] 0.062

DPY19L4 (UniProt Q7Z388)
inactive: [1] 0.117 | [2] 0.052 | [3] 0.025 | [4] 0.116 | [5] -0.011 | [6] -0.049 | [7] 0.207 | [8] 0.053 | [9] 0.13 | [10] 0.06

DPY19L3 (UniProt Q6ZPD9)
inactive: [1] 0.032 | [2] 0.072 | [3] 0.007 | [4] 0.127 | [5] -0.012 | [6] -0.072 | [7] 0.045 | [8] -0.013 | [9] 0.079 | [10] -0.031

DPF2 (UniProt Q92785)
inactive: [1] -0.04 | [2] -0.064 | [3] -0.028 | [4] -0.078 | [5] 0.015 | [6] 0.058 | [7] 0.025 | [8] 0.196 | [9] 0.007 | [10] -0.027

DUS4L (UniProt O95620)
inactive: [1] -0.013 | [2] 0.089 | [3] -0.01 | [4] -0.302 | [5] 0.05 | [6] -0.025 | [7] -0.029 | [8] 0.047 | [9] -0.049 | [10] 0.041
